Binding data for one substance are collected here from PMC3068935.

Assay [1] has as its target T1, FLAG-ATF3 (activating transcription factor 3) (UniProt P18847).
T1 sequence: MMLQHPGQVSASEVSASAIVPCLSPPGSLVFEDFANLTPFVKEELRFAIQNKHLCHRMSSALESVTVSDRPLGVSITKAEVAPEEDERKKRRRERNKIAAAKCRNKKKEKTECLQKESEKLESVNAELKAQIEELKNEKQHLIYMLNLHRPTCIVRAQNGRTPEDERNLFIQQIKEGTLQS
The assay is described as follows: co-IP.

Assay [2] concerns the target T1, FLAG-ATF3 (activating transcription factor 3). The assay is described as follows: co-IP; 293FT cells transfected, total cell lysates; IP with anti-FLAG, IB with anti-His and anti-p53; 1 hour at 4°C, protein G-sepharose.

These are yes or no findings as the source states them, for the method shown. In cells and extracts the contact can be indirect. A result given as binding can be weak or reduced; the word gives no strength. Tags and fused reporters may be left off the sequences shown.

With spliced HBZ (sHBZ)-Myc-His, the binding result in assay [1] and in assay [2] was “binds” throughout.
